The list shows a part of the results.

This experiment addresses T1, OsSMF1 (Oryza sativa, UniProt Q6ZLB0 1-436).
T1 sequence: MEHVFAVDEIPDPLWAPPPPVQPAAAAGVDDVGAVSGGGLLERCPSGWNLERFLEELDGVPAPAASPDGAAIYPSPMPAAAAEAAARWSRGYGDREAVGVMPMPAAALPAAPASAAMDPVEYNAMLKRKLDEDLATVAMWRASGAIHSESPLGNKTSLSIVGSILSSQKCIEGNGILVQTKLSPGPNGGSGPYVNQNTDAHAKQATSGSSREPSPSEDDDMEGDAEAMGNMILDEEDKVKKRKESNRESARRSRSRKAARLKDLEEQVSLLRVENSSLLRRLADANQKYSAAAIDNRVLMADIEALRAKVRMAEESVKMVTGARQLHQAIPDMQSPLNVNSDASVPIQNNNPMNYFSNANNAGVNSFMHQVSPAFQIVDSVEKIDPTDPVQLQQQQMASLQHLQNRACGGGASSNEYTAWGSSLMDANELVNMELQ
The experiment is described as follows: protein-binding microarray (RPBM); PBS, 2% BSA, 51.3 ng/ul salmon testes DNA, 50 uM zinc acetate, 200 nM TF, 25 C, 1 h; high values mean tight binding. Particulars: protein: recombinant; tags: N-terminal polyhistidine and DsRed monomer fusion (pET32a); chain copies: 2; label: CyDye5-dUTP incorporated in the synthesized complementary strand; 3' TTTTT single-stranded linker to array surface; dsDNA, one strand shown. The method, boiled down: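 Binding signal is reported as fluorescence intensity per feature (arbitrary units) from an Axon 4000B scanner. Incubation used 200 nM of each Ni–NTA-purified, N-terminally polyhistidine- and DsRed-fused transcription factor from E. coli BL21-CodonPlus on a double-stranded custom Agilent array for 1 h at 25 °C, with 50 µM zinc acetate in the buffer, followed by washing.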
Take “AGTCCAGTTATAGGTGCTTGTGTCAACAGAGAGTCCTTTCCGGAGTCACCTAGTGCAG”: the binding signal was 3710 fluorescence intensity (a.u.). For the sequence “GGTGAAGTGCAGGATCATGGCAGATGTCACCATTGCTGCTCGGAGTCACCTAGTGCAG”, the binding signal is 3880 fluorescence intensity (a.u.). The figure for “GTAGGAGATAATAGTTTCATAACACGTGTAAGCAGCATGTCGGAGTCACCTAGTGCAG” is 5870 fluorescence intensity (a.u.). On to “TATACTGTATATAGGTGGCTGACGTGTGGGCCCCGATCAGCGGAGTCACCTAGTGCAG”, for which the binding signal is 12700 fluorescence intensity (a.u.). Regarding “CGGAAATGATAAGGGCAGTTTCCGTCGGAACTCGAAATCGCGGAGTCACCTAGTGCAG”, the binding signal was 3250 fluorescence intensity (a.u.). For “AACTGGACGTGAGATTTTCCAAGACCCACCTTAAATGCATCGGAGTCACCTAGTGCAG” the value was 27400 fluorescence intensity (a.u.); for “CACCGTAGGGTCAATCTGGCCGTCCACGTGTCCCGCTGTGCGGAGTCACCTAGTGCAG”, 16400 fluorescence intensity (a.u.); for “GCTTGTTTAGGTCCCAATCTTTTCTGTCATTCCAAAGACGCGGAGTCACCTAGTGCAG”, 17500 fluorescence intensity (a.u.). In the case of “CCGCCAAATGTTAGCCATAAACCCTGAGCCGTTCACGTTTCGGAGTCACCTAGTGCAG”, the binding signal was 3780 fluorescence intensity (a.u.). For “CTCGCGCGACGTGGCCCCACCCAAGCGCATACGTGGCACCCGGAGTCACCTAGTGCAG” the value was 18900 fluorescence intensity (a.u.); for “CTTCGCTGCCAGTCACAACACCCATCTTCGTCGCCGCCCACGGAGTCACCTAGTGCAG”, 4180 fluorescence intensity (a.u.). In the case of “AAAAGGACAAAAGGCTTTCTTTCAAGTAATTGTCATGACGCGGAGTCACCTAGTGCAG”, the binding signal was 3450 fluorescence intensity (a.u.). In the case of “TTATTATTATTATTATTATTATTATATAACCAATATCTTTCGGAGTCACCTAGTGCAG”, the binding signal was 3310 fluorescence intensity (a.u.). Turning to “GTAGTGATGTCACTATTTAATAGTTGTATAATAAATACTCCGGAGTCACCTAGTGCAG”, the binding signal was 17800 fluorescence intensity (a.u.).

As to “AGAATAGTGTTACACACACGCGTACTCCGTGCCTTCCCGTCGGAGTCACCTAGTGCAG”, the binding signal was 3280 fluorescence intensity (a.u.). On to “ATTCACAGGCCTTTCTTAATTAAAACGGTAGATGGAGCAACGGAGTCACCTAGTGCAG”, for which the binding signal was 28400 fluorescence intensity (a.u.). As to “GATGTGCTGGTGTCCGACGCGCCGGCTGACGAGGCTGCAACGGAGTCACCTAGTGCAG”, the binding signal is 3400 fluorescence intensity (a.u.). For “TGAGAAGTGAGAACCCAATGTTGGCTGTGTTTAGATCCAACGGAGTCACCTAGTGCAG”, the binding signal is 7100 fluorescence intensity (a.u.). For “ATGTGCATACTACTACTTCTTACGTAGCATAGTGATTTGTCGGAGTCACCTAGTGCAG” the value was 3150 fluorescence intensity (a.u.); for “TGAGGGCCGGGGCAGCCTGTTGAATCACCAGGGATTTGCACGGAGTCACCTAGTGCAG”, 3190 fluorescence intensity (a.u.). Regarding “TCTTCTGGTAATGGAGATGGAGATTACCAAAACTCAATACCGGAGTCACCTAGTGCAG”, the binding signal is 17500 fluorescence intensity (a.u.). For “AGAACACATAACTAGCATATCAGGGCCTTCCAAGACTGCTCGGAGTCACCTAGTGCAG” the value was 26500 fluorescence intensity (a.u.). Turning to “TCTCTCTCTCTCTCTCTCTCTCGCGCCCCACCCAGATCTGCGGAGTCACCTAGTGCAG”, the binding signal was 3600 fluorescence intensity (a.u.). As to “CTGGTGCATACACAGTGGGTTTGAGAATGACATGGACGCTCGGAGTCACCTAGTGCAG”, the binding signal is 4890 fluorescence intensity (a.u.).

For the sequence “CAATCCCACCTCGCGCGATGACTCCGCACCCGCCCCACCTCGGAGTCACCTAGTGCAG”, the binding signal is 7260 fluorescence intensity (a.u.). With “CACGTGTTTTCTCGATGTCCACGTGGTGATGTGGAATTGTCGGAGTCACCTAGTGCAG”, the binding signal is 14800 fluorescence intensity (a.u.). For the sequence “CACTTACATGGCACATCACTCCAGCTTTACCAGCATCATTCGGAGTCACCTAGTGCAG”, the binding signal was 3400 fluorescence intensity (a.u.).

“CACCAGAGGATGGTCTCTAAGTCAATGTGACGTGCAATCCCGGAGTCACCTAGTGCAG”: the binding signal is 4140 fluorescence intensity (a.u.). On to “CCAGGCCGTCCCGGATCCACGCGCCCCGCGTGGCGGCGTCCGGAGTCACCTAGTGCAG”, for which the binding signal is 3590 fluorescence intensity (a.u.). The figure for “ATCGCACGGTACGAGCACATGACACGGACGGACTGGCTCACGGAGTCACCTAGTGCAG” is 3160 fluorescence intensity (a.u.); for “ATGTAATGAACCCAATCGTCTTGGAACAGCTCTCGCCATGCGGAGTCACCTAGTGCAG” it is 4620 fluorescence intensity (a.u.).

Turning to “TACCAAACAGGCCCTAAATGGGCTACGAGCAACGAAGTTTCGGAGTCACCTAGTGCAG”, the binding signal is 18200 fluorescence intensity (a.u.). With “GATGAATCGAATCCATTCCCAGCCAGCTGACGAGGTGTCTCGGAGTCACCTAGTGCAG”, the binding signal is 6070 fluorescence intensity (a.u.). “GCGTGGCGTGGTCACCACGACGCGTACGCCGACGGGCAGGCGGAGTCACCTAGTGCAG”: the binding signal is 3590 fluorescence intensity (a.u.). The figure for “CGCATGCGACAGACCATCACCGACACACGTGTGGTGGGGTCGGAGTCACCTAGTGCAG” is 3600 fluorescence intensity (a.u.). As for “TCTTAAGCTGATGATCTGTCTATTTCTGTGACAGTACCTCCGGAGTCACCTAGTGCAG”, the binding signal was 5030 fluorescence intensity (a.u.). In the case of “TATAAAATCTTGCTAAAATTTAGCAACCATACTAAAACTTCGGAGTCACCTAGTGCAG”, the binding signal is 3150 fluorescence intensity (a.u.). Turning to “TCCTGTGCTTACAACTCATACAGTATGCTCCTCAGAACACCGGAGTCACCTAGTGCAG”, the binding signal was 3240 fluorescence intensity (a.u.).

Consider “CAGAGAATCTAAGCCAAAGCTTTGATTAGATGGTGTGGTGCGGAGTCACCTAGTGCAG”, for which the binding signal was 3750 fluorescence intensity (a.u.). “CCCCTATAAAGCCATCTTTTATGTGACCACTCATGGGCTCCGGAGTCACCTAGTGCAG”: the binding signal was 3290 fluorescence intensity (a.u.). “AAATCTTACCTGCTCACGTGCCGTGCTGCCCGGTGTGCAGCGGAGTCACCTAGTGCAG”: the binding signal was 3900 fluorescence intensity (a.u.). As to “CTTGCGGCGATGGCCGTGGCGACCGTGGACGTGGCTGCCGCGGAGTCACCTAGTGCAG”, the binding signal is 3920 fluorescence intensity (a.u.).
